The other results are listed elsewhere or left out. Most entries show no effect beyond the scatter of the controls.

Chains of the proteins cited; added tags and fusions are not shown. Lines headed by an entry give the natural chain unless they say otherwise; changes in a name come on top.
UniProt Q9Y473: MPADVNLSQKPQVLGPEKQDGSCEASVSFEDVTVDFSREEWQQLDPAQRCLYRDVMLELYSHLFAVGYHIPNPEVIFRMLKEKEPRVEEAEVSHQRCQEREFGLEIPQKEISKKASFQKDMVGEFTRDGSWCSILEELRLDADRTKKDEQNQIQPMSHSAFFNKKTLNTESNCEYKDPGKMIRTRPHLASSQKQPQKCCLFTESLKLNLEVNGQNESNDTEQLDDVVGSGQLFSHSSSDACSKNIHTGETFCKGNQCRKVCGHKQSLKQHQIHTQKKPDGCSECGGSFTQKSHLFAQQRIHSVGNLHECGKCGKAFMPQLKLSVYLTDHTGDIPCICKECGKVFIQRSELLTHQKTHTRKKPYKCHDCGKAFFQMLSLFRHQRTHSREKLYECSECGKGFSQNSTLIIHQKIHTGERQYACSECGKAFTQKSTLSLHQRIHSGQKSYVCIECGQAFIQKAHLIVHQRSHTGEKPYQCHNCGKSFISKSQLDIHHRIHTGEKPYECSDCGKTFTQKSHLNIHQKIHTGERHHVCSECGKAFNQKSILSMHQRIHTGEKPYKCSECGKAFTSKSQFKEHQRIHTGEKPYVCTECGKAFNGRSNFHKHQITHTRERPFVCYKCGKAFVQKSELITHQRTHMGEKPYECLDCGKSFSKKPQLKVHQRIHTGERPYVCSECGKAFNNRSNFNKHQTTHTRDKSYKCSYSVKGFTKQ
UniProt Q9Y6W5, whole entry: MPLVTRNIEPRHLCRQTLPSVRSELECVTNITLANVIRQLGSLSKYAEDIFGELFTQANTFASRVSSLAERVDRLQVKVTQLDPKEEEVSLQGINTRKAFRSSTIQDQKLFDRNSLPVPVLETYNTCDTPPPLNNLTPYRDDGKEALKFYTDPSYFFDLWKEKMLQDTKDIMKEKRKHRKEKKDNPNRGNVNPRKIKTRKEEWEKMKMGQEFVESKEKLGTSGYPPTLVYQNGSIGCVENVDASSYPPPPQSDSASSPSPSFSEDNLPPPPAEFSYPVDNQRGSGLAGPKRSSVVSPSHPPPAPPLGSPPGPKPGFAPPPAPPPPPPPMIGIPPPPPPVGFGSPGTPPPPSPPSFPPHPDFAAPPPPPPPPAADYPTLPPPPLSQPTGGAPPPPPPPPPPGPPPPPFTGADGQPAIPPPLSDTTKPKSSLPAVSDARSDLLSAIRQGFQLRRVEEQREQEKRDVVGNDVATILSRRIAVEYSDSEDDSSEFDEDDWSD
UniProt Q9Y5N5: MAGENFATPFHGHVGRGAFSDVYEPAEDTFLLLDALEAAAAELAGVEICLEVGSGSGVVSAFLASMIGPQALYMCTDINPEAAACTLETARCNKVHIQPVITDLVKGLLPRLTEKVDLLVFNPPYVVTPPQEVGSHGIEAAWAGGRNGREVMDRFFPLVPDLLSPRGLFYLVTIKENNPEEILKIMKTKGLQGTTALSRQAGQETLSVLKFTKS
UniProt Q9Y2G7: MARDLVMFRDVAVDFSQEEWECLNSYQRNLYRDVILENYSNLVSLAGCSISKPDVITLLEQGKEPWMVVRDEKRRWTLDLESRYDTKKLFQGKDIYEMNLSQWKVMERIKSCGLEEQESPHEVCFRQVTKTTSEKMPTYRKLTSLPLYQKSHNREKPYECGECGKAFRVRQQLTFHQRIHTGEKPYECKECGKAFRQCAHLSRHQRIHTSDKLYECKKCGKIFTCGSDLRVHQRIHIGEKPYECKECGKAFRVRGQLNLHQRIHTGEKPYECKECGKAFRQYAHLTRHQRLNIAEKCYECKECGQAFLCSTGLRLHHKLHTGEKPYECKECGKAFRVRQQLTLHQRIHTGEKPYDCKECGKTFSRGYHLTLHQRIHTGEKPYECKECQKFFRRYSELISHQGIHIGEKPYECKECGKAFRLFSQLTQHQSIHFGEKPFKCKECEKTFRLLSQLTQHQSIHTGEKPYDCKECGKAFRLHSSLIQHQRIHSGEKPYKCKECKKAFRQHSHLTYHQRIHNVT
UniProt Q9Y2Z4: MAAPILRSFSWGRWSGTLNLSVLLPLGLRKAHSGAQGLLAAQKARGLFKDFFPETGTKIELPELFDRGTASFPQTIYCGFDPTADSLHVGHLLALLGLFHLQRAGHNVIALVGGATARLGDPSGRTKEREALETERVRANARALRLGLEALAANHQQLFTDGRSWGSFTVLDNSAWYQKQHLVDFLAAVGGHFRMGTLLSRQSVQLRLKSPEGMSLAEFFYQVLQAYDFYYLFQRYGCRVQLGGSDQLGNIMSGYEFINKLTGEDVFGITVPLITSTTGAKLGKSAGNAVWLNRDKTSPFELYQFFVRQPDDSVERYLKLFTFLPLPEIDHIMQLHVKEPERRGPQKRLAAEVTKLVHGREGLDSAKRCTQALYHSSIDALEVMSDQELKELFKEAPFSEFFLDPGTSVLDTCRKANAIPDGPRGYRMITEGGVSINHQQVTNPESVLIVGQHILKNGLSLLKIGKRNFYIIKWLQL
UniProt Q9Y2G9: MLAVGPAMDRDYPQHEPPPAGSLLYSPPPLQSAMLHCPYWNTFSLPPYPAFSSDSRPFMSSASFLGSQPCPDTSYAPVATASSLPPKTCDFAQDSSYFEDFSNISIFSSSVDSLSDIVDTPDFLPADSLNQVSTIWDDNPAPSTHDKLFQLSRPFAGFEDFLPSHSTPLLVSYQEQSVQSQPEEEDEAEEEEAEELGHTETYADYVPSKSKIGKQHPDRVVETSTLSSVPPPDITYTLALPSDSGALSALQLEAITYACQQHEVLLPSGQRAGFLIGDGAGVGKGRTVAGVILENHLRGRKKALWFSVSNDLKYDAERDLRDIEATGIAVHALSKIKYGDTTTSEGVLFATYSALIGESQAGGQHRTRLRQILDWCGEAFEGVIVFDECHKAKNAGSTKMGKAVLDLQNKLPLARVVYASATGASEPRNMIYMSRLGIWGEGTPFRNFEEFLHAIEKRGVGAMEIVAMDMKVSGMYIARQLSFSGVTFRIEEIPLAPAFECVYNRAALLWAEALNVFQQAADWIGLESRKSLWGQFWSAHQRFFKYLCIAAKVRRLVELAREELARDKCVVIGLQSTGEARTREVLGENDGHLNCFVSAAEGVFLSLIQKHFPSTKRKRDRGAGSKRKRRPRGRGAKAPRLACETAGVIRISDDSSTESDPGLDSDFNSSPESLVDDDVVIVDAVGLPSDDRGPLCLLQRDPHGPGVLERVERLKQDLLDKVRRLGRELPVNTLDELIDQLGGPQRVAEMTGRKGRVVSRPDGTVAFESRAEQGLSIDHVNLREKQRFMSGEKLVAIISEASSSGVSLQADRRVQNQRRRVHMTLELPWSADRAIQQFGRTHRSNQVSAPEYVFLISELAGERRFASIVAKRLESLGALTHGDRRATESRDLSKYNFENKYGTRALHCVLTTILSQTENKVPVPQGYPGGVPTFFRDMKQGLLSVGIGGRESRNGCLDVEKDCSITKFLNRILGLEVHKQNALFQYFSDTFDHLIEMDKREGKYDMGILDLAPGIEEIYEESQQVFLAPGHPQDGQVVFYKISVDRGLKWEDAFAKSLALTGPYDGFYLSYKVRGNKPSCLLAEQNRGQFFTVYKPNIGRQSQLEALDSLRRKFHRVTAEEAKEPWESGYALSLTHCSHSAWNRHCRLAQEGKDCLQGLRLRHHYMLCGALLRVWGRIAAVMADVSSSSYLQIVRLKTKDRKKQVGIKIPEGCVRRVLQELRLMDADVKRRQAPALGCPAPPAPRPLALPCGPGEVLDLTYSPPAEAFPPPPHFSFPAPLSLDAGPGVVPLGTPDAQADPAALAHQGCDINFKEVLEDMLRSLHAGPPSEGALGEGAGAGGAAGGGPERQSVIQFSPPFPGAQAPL
UniProt Q9Y2Y1: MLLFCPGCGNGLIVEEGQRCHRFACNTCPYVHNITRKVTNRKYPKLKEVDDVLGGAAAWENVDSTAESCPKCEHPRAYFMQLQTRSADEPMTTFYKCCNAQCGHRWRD
UniProt Q9Y3A5: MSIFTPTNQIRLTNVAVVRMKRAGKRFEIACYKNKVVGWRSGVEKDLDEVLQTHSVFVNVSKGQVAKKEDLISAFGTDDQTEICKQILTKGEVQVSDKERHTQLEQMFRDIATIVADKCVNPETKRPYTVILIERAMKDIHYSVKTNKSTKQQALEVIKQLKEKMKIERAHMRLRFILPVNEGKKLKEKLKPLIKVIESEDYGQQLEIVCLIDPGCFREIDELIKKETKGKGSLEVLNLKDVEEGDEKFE
UniProt Q9Y3D0: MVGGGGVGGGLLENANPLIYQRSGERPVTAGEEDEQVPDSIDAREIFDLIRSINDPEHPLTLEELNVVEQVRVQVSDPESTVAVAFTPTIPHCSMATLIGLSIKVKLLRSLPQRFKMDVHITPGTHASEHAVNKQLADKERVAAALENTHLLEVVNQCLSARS
UniProt Q9Y4C2: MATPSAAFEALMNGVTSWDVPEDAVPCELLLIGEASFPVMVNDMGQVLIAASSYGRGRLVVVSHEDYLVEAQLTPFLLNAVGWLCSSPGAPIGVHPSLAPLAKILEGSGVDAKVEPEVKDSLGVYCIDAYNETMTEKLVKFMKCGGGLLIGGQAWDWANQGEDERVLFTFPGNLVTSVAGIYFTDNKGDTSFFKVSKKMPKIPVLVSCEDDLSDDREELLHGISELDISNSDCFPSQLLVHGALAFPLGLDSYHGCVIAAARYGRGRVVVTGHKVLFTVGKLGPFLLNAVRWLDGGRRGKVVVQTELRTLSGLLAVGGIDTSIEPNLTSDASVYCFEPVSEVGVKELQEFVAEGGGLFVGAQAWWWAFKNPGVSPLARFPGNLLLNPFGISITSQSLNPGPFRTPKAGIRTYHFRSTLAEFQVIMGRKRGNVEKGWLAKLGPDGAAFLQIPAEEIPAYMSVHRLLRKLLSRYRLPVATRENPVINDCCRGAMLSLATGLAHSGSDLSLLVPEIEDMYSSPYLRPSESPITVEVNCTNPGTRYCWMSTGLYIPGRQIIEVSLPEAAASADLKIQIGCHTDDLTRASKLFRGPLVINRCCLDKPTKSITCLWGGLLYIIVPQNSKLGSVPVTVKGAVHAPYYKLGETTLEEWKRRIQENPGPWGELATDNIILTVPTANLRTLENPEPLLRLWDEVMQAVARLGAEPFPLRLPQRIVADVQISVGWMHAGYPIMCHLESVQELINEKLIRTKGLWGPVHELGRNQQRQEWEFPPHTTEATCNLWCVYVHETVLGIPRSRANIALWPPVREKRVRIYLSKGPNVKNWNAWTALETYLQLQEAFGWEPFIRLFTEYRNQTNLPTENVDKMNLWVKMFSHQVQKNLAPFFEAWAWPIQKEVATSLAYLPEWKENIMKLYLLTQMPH

Compound in the test: Cc1nc(Nc2ncc(C(=O)Nc3c(C)cccc3Cl)s2)cc(N2CCN(CCO)CC2)n1 [dasatinib]
Put plainly: log2 fold change of tryptic peptide abundance, ligand vs vehicle (limited proteolysis) (log2 ratio); higher = more trypsin-susceptible (destabilized). To be noted: ligand concentration: 5 uM; sample: K562 cleared lysate.
“MRPS16 (peptide sequence: LALGGCTNRPFYR, peptide start residue: 21) (UniProt Q9Y3D3)”: the log2 fold change is -0.165. To “UniProt Q9Y473 (peptide sequence: SQLDIHHR, peptide start residue: 488)” belongs 0.258; to “WASF2 (peptide sequence: SSTIQDQK, peptide start residue: 102) (UniProt Q9Y6W5)”, 0.083. To “N6AMT1 (peptide sequence: GLQGTTALSR, peptide start residue: 190) (UniProt Q9Y5N5)” belongs -0.238; to “UniProt Q9Y2G7 (peptide sequence: SCGLEEQESPHEVCFR, peptide start residue: 111)”, 0.0602; to “YARS2 (peptide sequence: KANAIPDGPR, peptide start residue: 415) (UniProt Q9Y2Z4)”, -0.332. As to “SBNO2 (peptide sequence: ILGLEVHK, peptide start residue: 972) (UniProt Q9Y2G9)”, the log2 fold change stood at 0.299. Then “POLR3K (peptide sequence: SADEPMTTFYK, peptide start residue: 86) (UniProt Q9Y2Y1)”, with 0.0597; and “SBDS (peptide sequence: FILPVNEGK, peptide start residue: 176) (UniProt Q9Y3A5)”, with -0.209; and “UniProt Q9Y3D0 (peptide sequence: EIFDLIR, peptide start residue: 45)”, with -0.0407. To “TCAF1 (peptide sequence: LGETTLEEWKR, peptide start residue: 642) (UniProt Q9Y4C2)” belongs 0.317.

(Values after the supplement of paper PMC12819154, “High-throughput peptide-centric local stability assay extends protein–ligand identification to membrane proteins, tissues and bacteria” (Nature Structural & Molecular Biology, 2025).)
